Experimental data as given in PubChem BioAssay AID248 (DTP/NCI, 2004).
The list does not hold the whole screen: it gathers tests that were run many times, whatever their T/C, doses with no T/C, and many T/C values between a quarter and a half above the control. Further doses and runs are listed elsewhere. T/C gives the treated animals as a percentage of the vehicle group. Some entries give survivors of the animals treated and no T/C: the source files T/C as zero there, which appears to mark a toxic dose or a test without result, not a measured value. Some survivor counts are full or nearly so, which does not show that the dose was tolerated: survival well below the control is almost never listed, so the zero probably covers shortened survival too. Survivors were counted at the toxicity check, usually on the fifth day, unless a day is given; later deaths do not show. Schedule codes are those of the source, taken here to give the interval after Q, in days (D) or hours (H), and the number of doses after X. Some entries were tested several times; the values are given in rising order. Signs of the kind (2×) count equal records among those shown. Some molecules as drawn cover several salts, stereoisomers or complexes of the source; a dose is that of the sample tested. For survival time, this PubChem deposit counts one and a half times the control or more as active, and values a quarter to a half above the control carry no call in these data; other NCI protocols may use other cut-offs.

Test system: L1210 leukemia ip in BDF1 mice, survival T/C
Assay: NCI In Vivo Anticancer Drug Screen. Data for tumor model L1210 Leukemia (intraperitoneal) in B6D2F1 (BDF1) mice
Details: higher T/C = longer survival
[1] = T/C endpoint: mean survival time, dose: 150.0 mg/kg/injection, schedule: Q01DX009 (ip), vehicle: saline
[2] = T/C endpoint: mean survival time, dose: 400.0 mg/kg/injection, schedule: Q04DX003 (ip), vehicle: Klucel (hydroxypropylcellulose) (HPC)
[3] = T/C endpoint: mean survival time, dose: 200.0 mg/kg/injection, schedule: Q01DX001 (ip), vehicle: Klucel (hydroxypropylcellulose) (HPC)
[4] = T/C endpoint: mean survival time, dose: 400.0 mg/kg/injection, schedule: Q01DX001 (ip), vehicle: Klucel (hydroxypropylcellulose) (HPC)
[5] = T/C endpoint: mean survival time, dose: 200.0 mg/kg/injection, schedule: Q01DX001 (ip), vehicle: saline
[6] = T/C endpoint: mean survival time, dose: 400.0 mg/kg/injection, schedule: Q01DX001 (ip), vehicle: saline
[7] = T/C endpoint: mean survival time, dose: 400.0 mg/kg/injection, schedule: Q04DX003 (ip), vehicle: saline with Tween-80
[8] = T/C endpoint: mean survival time, dose: 200.0 mg/kg/injection, schedule: Q01DX009 (ip), vehicle: Klucel (hydroxypropylcellulose) (HPC)
[9] = T/C endpoint: mean survival time, dose: 300.0 mg/kg/injection, schedule: Q01DX001 (ip), vehicle: saline
[10] = T/C endpoint: mean survival time, dose: 200.0 mg/kg/injection, schedule: Q01DX009 (ip), vehicle: saline
[11] = T/C endpoint: mean survival time, dose: 100.0 mg/kg/injection, schedule: Q01DX009 (ip), vehicle: carboxymethylcellulose (CMC)
[12] = T/C endpoint: mean survival time, dose: 400.0 mg/kg/injection, schedule: Q04DX003 (ip), vehicle: saline

Compound: Cc1ccc2c(ccc(C)[n+]2C)c1
- T/C (T/C endpoint: mean survival time, dose: 75.0 mg/kg/injection, schedule: Q01DX009 (ip), vehicle: acetone): 132 % of control
- T/C [1]: 133 % of control
- survivor count [1]: 3 of 6
- survivor count (T/C endpoint: mean survival time, dose: 300.0 mg/kg/injection, schedule: Q01DX009 (ip), vehicle: acetone): 0 of 6
- survivor count (T/C endpoint: mean survival time, dose: 300.0 mg/kg/injection, schedule: Q01DX009 (ip), vehicle: saline): 0 of 6

Compound: CNC(=O)OCC1=CC(=O)C(OC)=CC1=O
- survivor count (T/C endpoint: mean survival time, dose: 1.5 mg/kg/injection, schedule: Q01DX009 (ip), vehicle: Klucel (hydroxypropylcellulose) (HPC)): 6 of 6
- survivor count (T/C endpoint: mean survival time, dose: 6.0 mg/kg/injection, schedule: Q01DX009 (ip), vehicle: Klucel (hydroxypropylcellulose) (HPC)): 5 of 6
- survivor count (T/C endpoint: mean survival time, dose: 12.0 mg/kg/injection, schedule: Q01DX009 (ip), vehicle: Klucel (hydroxypropylcellulose) (HPC)): 6 of 6
- survivor count (T/C endpoint: mean survival time, dose: 50.0 mg/kg/injection, schedule: Q04DX003 (ip), vehicle: Klucel (hydroxypropylcellulose) (HPC)): 0 of 6
- survivor count (T/C endpoint: mean survival time, dose: 100.0 mg/kg/injection, schedule: Q04DX003 (ip), vehicle: Klucel (hydroxypropylcellulose) (HPC)): 1 of 6
- survivor count (T/C endpoint: mean survival time, dose: 200.0 mg/kg/injection, schedule: Q04DX003 (ip), vehicle: Klucel (hydroxypropylcellulose) (HPC)): 0 of 6
- survivor count [2]: 0 of 6

Compound: CCc1cnc(N)nc1N
- survivor count [3]: 3 of 6
- survivor count [4]: 0 of 6

Compound: CC(C)OC(=O)C#CC(=O)O
- survivor count [5]: 0 of 6
- survivor count [6]: 0 of 6

Compound: OCC1OC(c2ccccc2)OC(CO)C(O)C1O (stereo unspecified)
- survivor count [7]: 6 of 6

Compound: CC(C)(C)SCC(NC(=O)OCc1ccccc1)C(=O)O (stereo unspecified)
- survivor count [8]: 3 of 6

Compound: CN(Cc1cnc2nc(N)nc(N)c2n1)c1ccc(C(=O)NC(CCC(=O)O)C(=O)O)cc1F (stereo unspecified)
- T/C (T/C endpoint: median survival time, dose: 0.31 mg/kg/injection, schedule: Q01DX009 (ip), vehicle: other): 144 % of control
- T/C (T/C endpoint: median survival time, dose: 0.62 mg/kg/injection, schedule: Q01DX009 (ip), vehicle: other): 133 % of control
- T/C (T/C endpoint: median survival time, dose: 5.0 mg/kg/injection, schedule: Q01DX009 (ip), vehicle: other): 144 % of control
- survivor count (T/C endpoint: median survival time, dose: 10.0 mg/kg/injection, schedule: Q01DX009 (ip), vehicle: other): 7 of 8

Compound: O=C(O)c1cccnc1C(=O)O.[Cu+2]
- survivor count (T/C endpoint: mean survival time, dose: 12.5 mg/kg/injection, schedule: Q01DX009 (ip), vehicle: Klucel (hydroxypropylcellulose) (HPC)): 2 of 6
- survivor count (T/C endpoint: mean survival time, dose: 25.0 mg/kg/injection, schedule: Q01DX009 (ip), vehicle: Klucel (hydroxypropylcellulose) (HPC)): 3 of 6
- survivor count (T/C endpoint: mean survival time, dose: 25.0 mg/kg/injection, schedule: Q04DX003 (ip), vehicle: Klucel (hydroxypropylcellulose) (HPC)): 1 of 6
- survivor count (T/C endpoint: mean survival time, dose: 50.0 mg/kg/injection, schedule: Q01DX001 (ip), vehicle: other): 0 of 6
- survivor count (T/C endpoint: mean survival time, dose: 100.0 mg/kg/injection, schedule: Q01DX001 (ip), vehicle: Klucel (hydroxypropylcellulose) (HPC)): 0 of 6 (2×)
- survivor count [3]: 1 of 6 (2×)
- survivor count [4]: 0 of 6 (2×)

Compound: OC1c2ccccc2-c2ccc(Cl)cc21 (stereo unspecified)
- survivor count (T/C endpoint: mean survival time, dose: 200.0 mg/kg/injection, schedule: Q01DX009 (ip), vehicle: saline with Tween-80): 5 of 6
- survivor count (T/C endpoint: mean survival time, dose: 400.0 mg/kg/injection, schedule: Q01DX009 (ip), vehicle: saline with Tween-80): 3 of 6

Compound: Cc1cccn2c(=O)cc(Cl)nc12
- survivor count (T/C endpoint: mean survival time, dose: 400.0 mg/kg/injection, schedule: Q01DX001 (ip), vehicle: carboxymethylcellulose (CMC)): 1 of 4

Compound: CCC[N+]1(C)CCOCC1
- survivor count (T/C endpoint: mean survival time, dose: 150.0 mg/kg/injection, schedule: Q01DX001 (ip), vehicle: saline): 0 of 6 and 1 of 6
- survivor count [9]: 0 of 6 (2×)

Compound: CC(CCc1ccccc1)N(C)C(=O)CNC(=O)CN1C(=O)c2ccccc2C1=O (stereo unspecified)
- survivor count [6]: 2 of 4

Compound: NNC(=O)CCNCCC(=O)NN
- survivor count (T/C endpoint: mean survival time, dose: 400.0 mg/kg/injection, schedule: Q04DX002 (ip), vehicle: saline + alcohol): 3 of 3

Compound: O=S(=O)(O)SCCN1CCCCCCC1
- survivor count [10]: 3 of 6
- survivor count (T/C endpoint: mean survival time, dose: 400.0 mg/kg/injection, schedule: Q01DX009 (ip), vehicle: saline): 0 of 6

Compound: CCCC1=NNc2n[nH]c(=S)n2N1
- survivor count (T/C endpoint: mean survival time, dose: 100.0 mg/kg/injection, schedule: Q01DX009 (ip), vehicle: Klucel (hydroxypropylcellulose) (HPC)): 1 of 6
- survivor count [8]: 0 of 6
- survivor count [2]: 0 of 6

Compound: C[CH2][Hg][S]c1nsc([S][Hg][CH2]C)n1
- survivor count (T/C endpoint: mean survival time, dose: 50.0 mg/kg/injection, schedule: Q01DX009 (ip), vehicle: Klucel (hydroxypropylcellulose) (HPC)): 0 of 6

Compound: CC(C)CCNc1ncnc2nc[nH]c12
- survivor count [9]: 3 of 6

Compound: Cc1ccc(S(=O)(=O)OCCN(CCOS(=O)(=O)c2ccc(C)cc2)c2ccccc2)cc1
- T/C (T/C endpoint: mean survival time, dose: 15.0 mg/kg/injection, schedule: Q01DX015 (ip), vehicle: carboxymethylcellulose (CMC)): 125 % of control
- T/C (T/C endpoint: mean survival time, dose: 30.0 mg/kg/injection, schedule: Q01DX015 (ip), vehicle: carboxymethylcellulose (CMC)): 127 % of control
- T/C (T/C endpoint: mean survival time, dose: 120.0 mg/kg/injection, schedule: Q01DX015 (ip), vehicle: carboxymethylcellulose (CMC)): 143 % of control
- T/C [5]: 129 % of control
- T/C (T/C endpoint: mean survival time, dose: 240.0 mg/kg/injection, schedule: Q01DX015 (ip), vehicle: carboxymethylcellulose (CMC)): 136 % of control
- T/C [6]: 127 % of control

Compound: O=C1CC(=O)C(Br)=C1Br
- survivor count (T/C endpoint: mean survival time, dose: 6.0 mg/kg/injection, schedule: Q04DX003 (ip), vehicle: saline with Tween-80): 2 of 6
- survivor count (T/C endpoint: mean survival time, dose: 100.0 mg/kg/injection, schedule: Q04DX003 (ip), vehicle: saline with Tween-80): 2 of 6
- survivor count (T/C endpoint: mean survival time, dose: 200.0 mg/kg/injection, schedule: Q04DX003 (ip), vehicle: saline with Tween-80): 0 of 6
- survivor count [7]: 0 of 6

Compound: COc1cc(NC(=O)Nc2ccc(Cl)c(C(F)(F)F)c2)ccc1NC(C)=O
- T/C [11]: 87, 88, 91 % of control
- survivor count [11]: 3 of 3
- T/C (T/C endpoint: mean survival time, dose: 200.0 mg/kg/injection, schedule: Q01DX009 (ip), vehicle: carboxymethylcellulose (CMC)): 86, 90, 97, 99 % of control
- survivor count (T/C endpoint: mean survival time, dose: 400.0 mg/kg/injection, schedule: Q01DX009 (ip), vehicle: carboxymethylcellulose (CMC)): 3 of 3 and 6 of 6

Compound: CC1(C)OCC(=NNC(N)=O)CO1
- survivor count [10]: 0 of 6
- survivor count [12]: 1 of 6

Compound: CC(CO)NC(=O)C1C=C2c3cccc4[nH]cc(c34)CC2N(C)C1 (stereo unspecified)
- survivor count [12]: 3 of 6

Compound: c1ccc(CN2CCC(N3CCCC3)CC2)cc1
- survivor count [12]: 1 of 6

Compound: Oc1ccc(Cl)c2c1CCC2
- survivor count [7]: 6 of 6

Compound: Oc1cc(Cl)c(Cl)cc1Cl.[Cu+2]
- survivor count (T/C endpoint: mean survival time, dose: 50.0 mg/kg/injection, schedule: Q04DX003 (ip), vehicle: gum acacia): 1 of 6
- survivor count (T/C endpoint: mean survival time, dose: 100.0 mg/kg/injection, schedule: Q04DX003 (ip), vehicle: gum acacia): 0 of 6
- survivor count (T/C endpoint: mean survival time, dose: 200.0 mg/kg/injection, schedule: Q04DX003 (ip), vehicle: gum acacia): 0 of 6
- survivor count (T/C endpoint: mean survival time, dose: 400.0 mg/kg/injection, schedule: Q04DX003 (ip), vehicle: gum acacia): 0 of 6

Compound: O=C(Nc1ccccn1)c1ccccc1
- survivor count (T/C endpoint: mean survival time, dose: 200.0 mg/kg/injection, schedule: Q04DX002 (ip), vehicle: saline with Tween-80): 2 of 3
- survivor count (T/C endpoint: mean survival time, dose: 400.0 mg/kg/injection, schedule: Q04DX002 (ip), vehicle: saline with Tween-80): 1 of 3

Compound: COc1cc(Br)c2c(c1OC)C1(CC[N+](C)(C)C)CC(=O)CCC1CC2 (stereo unspecified)
- survivor count [5]: 0 of 6
- survivor count [6]: 0 of 6

Compound: CC1=C(C)CC2(C)N(C)CC2(C)C1 (stereo unspecified)
- survivor count (T/C endpoint: mean survival time, dose: 300.0 mg/kg/injection, schedule: Q01DX001 (ip), vehicle: other): 0 of 6
